{
  "source": "patent US20230044268A1",
  "about": "(SHILPA MEDICARE LIMITED, priority 2019, published 2023)",
  "test": "general procedure: Fmoc solid-phase peptide synthesis; Wang resin (Fmoc-Gly-Wang resin, substitution 0.40 to 0.75 mmol/g); DIC/Oxymapure (DMAP for resin loading)",
  "settings": "whole synthesis, analytical HPLC, scale of the general procedure 10-gram Fmoc-Gly-Wang resin",
  "data": [
    {"substance": "Liraglutide", "values": [
      {"measurement": "final HPLC purity", "result": 99.5, "unit": "%"}
    ]}
  ]
}
